Data as given in paper PMC8566228.
No constants are given. Whether binding was seen depends on the method and setting. In cells and extracts the contact can be indirect. Some results given as binding are weak or reduced against the parent protein; the word gives no strength.

Target: Zonula occludens-1 (rat (endogenous in IEC-6))
Assay: co-IP; IEC-6 lysate (1% NP40, 20 mM Tris, 150 mM NaCl, 2 mM EDTA, pH 7.4); IP antibody on protein G Sepharose, 500 ug protein extract, 1 h; western blot; cells with or without dexamethasone and/or SP-D; each protein in turn as bait

B1: heat-shock protein APG2 (protein, UniProt O88600 1-840)
chain: MSVVGIDLGFQSCYVAVARAGGIETIANEYSDRCTPACVSFGPKNRSVGAAAKSQVISNAKNTVQGFKRFHGRAFSDPFVEAEKSNLAYDIVQLPTGLTGIKVTYMEEERNFTTEQVTAMLLSKLKETAESVLKKPVVDCVVSVPSFYTDAERRSVMDATQIAGLNCLRLMNETTAVALAYGIYKQDLPALEEKPRNVVFVDMGHSAYQVSVCAFNRGKLKVLATAFDTTLGGRKFDEVLVNHFCEEFGKKYKLDIKSKVRALLRLSQECEKLKKLMSANASDLPLSIECFMNDIDVSGTMNRGKFLEMCDDLLARVEPPLRSILDQSKLKKEDIYAVEIVGGATRIPAVKEKISKFFGKELSTTLNADEAVTRGCALQCAILSPAFKVREFSITDVVPYPISLRWNSPAEEGSSDCEVFPKNHAAPFSKVLTFYRKEPFTLEAYYSSPQDLPYPDPAIAQFSVQKVTPQSDGSSSKVKVKVRVNVHGIFSVSSAALVEVHKSEESEEPMETDQNAKEEEKMQVDQEEPHTEEQQPQTPAENKAESEEMETSQAGSKDKKMDQPPQAKKAKVKTSTVDLPIESQLLWQLDREMLGLYTENEGKMIMQDKLEKERNDAKNAVEEYVYEMRDKLSGEYEKFVSEDDRNNFTLKLEDTENWLYEDGEDQPKQVYVDKLAELRTLGQPIKTRFQESEERPKLFEELGKQIQQYMKVISSFKNKEDQYEHLDAADMTKVEKSTNEAMEWMNSKLNLQNKQSLTADPVVKTKEIEAKIKELTNICSPIISKPKPKVEPPKEEPKHAEQNGPVDGQGDNPGTQAAEHGADTAVPSDGDKKLPEMDID
binding: binds
